This passage reports binding results from patent publication US20030036505A1.

For the assay, the target named is p85 (PI3K p85) (murine (endogenous in murine FD-Fms cells)). The assay is described as follows: co-immunoprecipitation and immunoblot from M-CSF-stimulated FD-Fms(mGab3V5) cells. Background: In western blotting, separated proteins are transferred to a membrane and probed.

These are yes or no findings as the source states them, for the method shown. Binding seen in cells or lysates may run through a third protein. Binding can be weak; no strength is given. Sequences can lack the tags named with a protein.

B1: V5-tagged murine Gab3 (mGab3V5), tyrosine phosphorylated after M-CSF stimulation (protein, UniProt Q8BSM5 1-595, looked up, not shown: small tags and cut ends)
chain: MSTGDTVCMGWLIKSPPERKLQRYAWRKRWFVLRRGRMSGNPDVLEYYRNKHSNKPIRVIDLSECTVWKHAGPGFIRKEFQKNFVFIVKTTSRTFYLVAKTEEEMQVWVHSISQVCNFSHLEDGADSMESLSHMPSSFQPSPASSLHTVHVANSALLKDDRNTNSVVTEETRRESEFLFLPDYLILSNCETGRLHHASLPTRCDSWSNSNHSLAQTSFDDVFLDGLQPFISNNLVHPLHHGKVSQDFPSIRPQASLIWNREINGPSRNLMSSSPLLESSLNPTVHVEEKQVSLPSGVKELNIMSNTPPPRPPKPSYLSEQRQDQPLLTGHSSNKKPGYTMVPRRISLSGLDHVGSWKGDVQSQSLRHRDKRLSLNLPCKFSPIYPTASPSAEDSYVPMSPKGTASELRPHCSQDDYIPMSSSMLPELPADLEPPPVNRNLKPQRKSRPPPLDSRNLSTIQEHTSLTRTYTVPCNRTSFLSPQRNGINCARLFSTPSEEEEEEEEEEEEEEEEEKYIQMEEYGTVSSLSRSALSWTKKFSLDYLALDFNSTSPAPVQKKLLLSEEQRVDYVQVDEQKTQALRSTKQEWTDERQSKV
modifications: phosphotyrosine; sites not stated
In the case of B1, the binding entry is given as “binds”.
